Experimental data: patent publication US10391113B2, “Compatible composition containing chinese medicine cichorium glandulosum boiss et hout as lipid-lowering active ingredient” (Nanjing Ruiying Runze Biopharmaceutical Technology Co., Inc., priority 2014, dated 2019)
At least one compound was matched to its structure with a doubt left.

Columns and labels:
[1] = test system: high fat diet induced rat lipid metabolism disorder model; experiment: High fat diet induced rat lipid metabolism disorder model; type: in vivo, SD rat; settings: 100 mg/kg; high fat diet rats
Description: Experiment method: 90 SD rats are normally fed for 1 week, the normal group of 10 rats are fed common feedstuff, and others are fed high fat feedstuff (basic feedstuff 88%, lard 10% and cholesterol 2%). 4 weeks later, the rats fed high fat feedstuff are randomly divided into 5 groups, each group of 10. […] The rats in the bezafibrate group are fed bezafibrate 100 mg/kg at the same time as the high fat feedstuff feeding respectively. The tested sample groups are given 100 mg/kg by gavage respectively at the same time as the high fat feedstuff feeding, once a day. The experiment animals can freely drink water and take food, and are fed separately in cages in light and dark for 12 hours, respectively, in a SPF grade animal lab under 25±2° C. After the eighth week of the experiment, the rats are fasted for 16 hours, collected blood from arteria cruralis, sacrificed by dislocating the cervical vertebra, taking out the liver, and preparing serum and liver tissue homogenate in conventional method. The triglyceride (TG), total cholesterol (TC), high density lipoprotein (HDL-C), low density lipoprotein (LDL-C), glutamic-pyruvic transaminase (ALT) and glutamic-oxalacetic transaminase (AST) content in the serum and liver is detected.

HepG2 cell = experiment: Lipid droplet content of free fat acid (FFA) induced HepG2 cell (nile red, flow detection); type: cell-based; settings: compared with the model groups / other groups
Description: Experiment method: the HepG2 cells in the logarithmic growth phase are taken having a growth density of 80%, and inoculated into 6-well plate at 1×10^5 per well. After culturing cells for 24 hours, the supernatant is discarded, and the cells are washed with PBS three times. […] Except for the blank control group, all of the other groups are added FFA having a final concentration of 1 mmol/L, and the remaining volume is completed to 2 mL with the DMEM medium containing 10% fetal bovine serum, 24 hours after administration, washed with PBS in 37° C. three times, digested by the pancreatin, centrifugated, the supernatant is discarded, the cells are resuspended with PBS, and the final concentration is adjusted to 1 μg/mL by adding nile red dye.

rat primary hepatocyte = experiment: Oil red staining confirmation in FFA induced rat primary hepatocyte hyperlipidemia model; type: cell-based, SD rat; settings: 1 mM FFA 24 hours; bezafibrate 100 μM; individual compounds 20 μM; 400× microscope

With CC(C)(Oc1ccc(CCNC(=O)c2ccc(Cl)cc2)cc1)C(=O)O [bezafibrate] the “effect compared with the model group” value [1] was “decrease the weight, TG, TC, ALT, AST and HDL-C content in various degree, and increase the LDL-C content”, the “effect on lipid droplet content in 1 mM FFA stimulated HepG2 cells” value (HepG2 cell) was “decrease the lipid droplet content” and the “lipid droplet content by oil red staining compared with model group” value (rat primary hepatocyte) was “decrease the lipid droplet content”.
